The record followed here is the supplement of paper PMC12823440, “Inhibitors supercharge kinase turnover through native proteolytic circuits” (Nature, 2025).

By UniProt entry, the sequences of proteins in these tests, tags left out. Where a name states a change or a piece, a line headed by the entry shows the natural chain unless it says otherwise.
UniProt P31749: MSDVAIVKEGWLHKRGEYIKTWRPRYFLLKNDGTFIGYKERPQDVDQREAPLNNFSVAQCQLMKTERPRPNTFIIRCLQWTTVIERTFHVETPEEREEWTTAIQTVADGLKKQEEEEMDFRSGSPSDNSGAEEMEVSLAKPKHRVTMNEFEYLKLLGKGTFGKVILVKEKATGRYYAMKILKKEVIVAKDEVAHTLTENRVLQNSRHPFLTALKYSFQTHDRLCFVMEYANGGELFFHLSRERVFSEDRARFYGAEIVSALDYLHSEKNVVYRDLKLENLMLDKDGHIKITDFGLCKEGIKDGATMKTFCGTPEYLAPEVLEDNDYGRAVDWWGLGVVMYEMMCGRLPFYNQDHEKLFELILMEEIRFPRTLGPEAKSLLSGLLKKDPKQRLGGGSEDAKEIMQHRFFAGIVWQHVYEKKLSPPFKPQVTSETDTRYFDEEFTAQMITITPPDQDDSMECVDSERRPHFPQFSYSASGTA
UniProt Q9UM73: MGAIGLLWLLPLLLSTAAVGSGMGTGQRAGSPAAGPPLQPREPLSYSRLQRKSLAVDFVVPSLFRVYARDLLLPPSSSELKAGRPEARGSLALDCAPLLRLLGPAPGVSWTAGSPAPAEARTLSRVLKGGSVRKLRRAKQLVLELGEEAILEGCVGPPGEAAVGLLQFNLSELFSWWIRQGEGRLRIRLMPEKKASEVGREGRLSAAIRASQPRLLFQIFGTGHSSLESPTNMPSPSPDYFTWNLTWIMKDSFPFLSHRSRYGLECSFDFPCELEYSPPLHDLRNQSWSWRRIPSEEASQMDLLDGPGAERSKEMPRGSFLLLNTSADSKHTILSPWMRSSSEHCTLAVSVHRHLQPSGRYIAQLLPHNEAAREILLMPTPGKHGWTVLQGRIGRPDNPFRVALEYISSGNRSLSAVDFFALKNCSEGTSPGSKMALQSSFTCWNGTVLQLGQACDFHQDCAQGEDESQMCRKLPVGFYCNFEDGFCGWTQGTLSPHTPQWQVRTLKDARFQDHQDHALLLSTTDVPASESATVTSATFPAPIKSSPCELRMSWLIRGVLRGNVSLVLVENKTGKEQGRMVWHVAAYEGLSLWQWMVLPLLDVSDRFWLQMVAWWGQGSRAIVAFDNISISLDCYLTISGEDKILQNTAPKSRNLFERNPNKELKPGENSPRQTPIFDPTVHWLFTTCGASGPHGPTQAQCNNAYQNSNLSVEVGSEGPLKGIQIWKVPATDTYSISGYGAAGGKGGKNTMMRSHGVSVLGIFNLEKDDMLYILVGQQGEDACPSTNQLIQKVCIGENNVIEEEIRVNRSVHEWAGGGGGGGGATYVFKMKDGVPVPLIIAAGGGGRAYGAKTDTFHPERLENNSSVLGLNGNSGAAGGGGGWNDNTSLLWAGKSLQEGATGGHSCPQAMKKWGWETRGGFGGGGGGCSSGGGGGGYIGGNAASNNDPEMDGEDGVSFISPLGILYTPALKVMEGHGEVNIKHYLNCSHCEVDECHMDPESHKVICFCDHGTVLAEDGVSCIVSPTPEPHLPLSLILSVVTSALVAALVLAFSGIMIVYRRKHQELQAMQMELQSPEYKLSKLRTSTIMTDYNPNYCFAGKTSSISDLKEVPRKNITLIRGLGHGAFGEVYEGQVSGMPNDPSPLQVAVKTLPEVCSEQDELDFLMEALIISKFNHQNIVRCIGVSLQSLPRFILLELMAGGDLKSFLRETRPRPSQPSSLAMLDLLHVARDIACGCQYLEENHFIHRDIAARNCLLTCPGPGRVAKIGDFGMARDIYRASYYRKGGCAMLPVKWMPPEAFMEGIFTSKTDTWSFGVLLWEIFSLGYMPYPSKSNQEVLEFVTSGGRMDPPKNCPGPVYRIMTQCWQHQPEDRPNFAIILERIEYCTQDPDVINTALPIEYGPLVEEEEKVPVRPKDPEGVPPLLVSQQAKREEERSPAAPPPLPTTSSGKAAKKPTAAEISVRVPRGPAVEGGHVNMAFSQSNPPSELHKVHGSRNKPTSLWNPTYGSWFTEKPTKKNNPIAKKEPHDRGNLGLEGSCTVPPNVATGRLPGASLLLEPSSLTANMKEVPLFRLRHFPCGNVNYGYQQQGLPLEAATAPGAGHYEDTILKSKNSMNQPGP

Counter-ions that a name gives are not always drawn. The list shows a part of the results. The calls rarely recur for the same compound in another form.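 In K562 cells expressing nanoluciferase-fused kinases, luminescence was recorded at 4 h intervals between 2 and 18 h, normalized as percent of control with DMSO at 100% and a positive control at 0%. A significant (2 sigma) signal drop marks a time point as decreased. The authors' rule for a hit is not shown and takes in more than the number of time points.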

The target of one test is AKT1 (UniProt P31749). Briefly: number of time points (of 5) at which kinase-Nluc abundance scored as decreased, DMSO-normalised (count); higher = more persistent destabilization. As to conditions: K562; 2-18 h.
As to `COc1c(Nc2cc(C)[nH]n2)nc(Sc2ccc(S(=O)(=O)Cc3cccc([N+](=O)[O-])c3F)cc2F)nc1N1CCCCC1` [Centrinone-B] (2.5 µM), the “number of time points” value was 0. For the compound `COc1ccc(/C=C/C(=O)C2(C(=O)/C=C/c3ccc(OC)c(OC)c3)CCCCC2)cc1OC` (2.5 µM), the “number of time points” value stood at 0. For `CN(C)c1nc2c(Br)c(Br)c(Br)c(Br)c2[nH]1` (10 µM), the “number of time points” value was 0. In the case of `O=C(Nc1nc(=O)n(Cc2ccc(Cl)cc2)s1)c1ccc(Cl)cc1` (10 µM), the “number of time points” value turned out to be 0. Turning to `Nc1n[nH]c2nc(-c3ccc(NS(=O)(=O)c4cc(Cl)ccc4F)cc3)cnc12` (10 µM), the “number of time points” value turned out to be 0.

In a further test the target is ALK (UniProt Q9UM73). The test is described as above. As to conditions: K562; 2-18 h.
As to `CN1CC[C@@H](c2c(O)cc(O)c3c(=O)cc(-c4ccc(C(F)(F)F)cc4Cl)oc23)[C@@H]1CO` [Voruciclib (hydrochloride)] (10 µM), the “number of time points” value worked out at 0. Take `O=c1cc(-c2cccc3c2Sc2ccccc2S3)oc(N2CCOCC2)c1` (10 µM): the “number of time points” value is 0. On the same count and under the same terms, under `O=[N+]([O-])c1ccc(Nc2nc(N3CCOCC3)nc(N3CCOCC3)n2)cc1` (10 µM) stands 0; under `c1ccc(-c2nc(=NCCN3CCOCC3)sn2-c2ccccc2)cc1` [VP3.15 (dihydrobromide)] (10 µM), 0; under `Nc1nc(N)c2nc(-c3cccc(O)c3)cnc2n1` (10 µM), 0.

For `Nc1ncnc2c1c(-c1ccc(Oc3ccccc3)cc1)nn2C1CCN(CCOCCOCCOc2ccc3c(c2)CN(C2CCC(=O)NC2=O)C3=O)CC1` (centres undefined) (2.5 µM), the “number of time points” value worked out at 0. Still for that read-out and setting: the value for `C=CC(=O)N1C[C@H](COc2nc(Nc3cnn(C)c3)nc3[nH]cc(Cl)c23)[C@@H](OC)C1` (2.5 µM) was 0; that for `Cc1nn(C)c2c1C(c1ccc(C(F)(F)F)cc1)C(C#N)=C(N)O2` (centres undefined) (10 µM) was 0. In the case of `O=C(NC1CCOCC1)c1ccc(-c2cc(-c3c[nH]nc3-c3ccccn3)ccn2)cc1` (10 µM), the “number of time points” value turned out to be 0. As to `CC/C(=N\NC(=O)c1ccnc(NCCCN2CCOCC2)c1)c1ccc(Cl)cc1O` (2.5 µM), the “number of time points” value stood at 0. For `COc1cc(N2CCOCC2)ccc1Nc1ncc(Cl)c(Nc2ccccc2NS(C)(=O)=O)n1` (2.5 µM), the “number of time points” value came to 0. For `Cn1cnc([N+](=O)[O-])c1C[N+](C)(C)C/C=C/C(=O)Nc1cc2c(Nc3ccc(Cl)c(Br)c3)ncnc2cn1` [Tarloxotinib (bromide)] (10 µM), the “number of time points” value is 0. As to `O=C(Nc1cccc(C(F)(F)F)c1)c1cccc2cc(Oc3cc(CO)ncn3)ccc12` (10 µM), the “number of time points” value stood at 0. For `Oc1ccc(/C=C/c2cc(O)cc(O)c2)cc1` [Resveratrol] (10 µM), the “number of time points” value came to 0. With `O=c1[nH]c(C2CCCN2)nc2c1oc1ccc(Cl)cc12` (centres undefined) [XL413 (hydrochloride)] (10 µM), the “number of time points” value amounted to 0. With `CN(c1ccc(NC(=O)Nc2ccc(OC(F)(F)F)cc2)cc1)c1ccnc(Nc2cccc(S(N)(=O)=O)c2)n1` (2.5 µM), the “number of time points” value is 2.

Take `C=C[C@@](C)(/C=C/c1ccc(O)cc1)CCC=C(C)C` [Bakuchiol] (10 µM): the “number of time points” value is 0. Take `COc1cc2ncnc(-n3nc(-c4ccccn4)nc3N)c2cc1OC` (10 µM): the “number of time points” value amounted to 0. For `CNc1nc(Nc2ccc(C(=O)N3CCOCC3)cc2OC)ncc1Cl` (2.5 µM), the “number of time points” value turned out to be 0. Consider `CC(C)S(=O)(=O)c1ccc2nccc(Nc3ccc4scnc4c3)c2c1` (10 µM), for which the “number of time points” value was 0. `CC(C)(O)[C@H]1CC[C@H](Nc2ccc3ncc(-c4cccc(C(F)(F)F)c4)n3n2)CC1` (10 µM): the “number of time points” value was 0. Take `CCN(CC)c1ccc2cc(-c3nc4cc(C)ccc4o3)c(=O)oc2c1` (10 µM): the “number of time points” value worked out at 0. As to `CN(C)S(=O)(=O)c1ccc2c(c1)/C(=C/c1cc3c([nH]1)CCCC3)C(=O)N2` (2.5 µM), the “number of time points” value was 0. As to `C=CC(=O)Nc1cc(Nc2nccc(-n3cc(CN(C)C)c(-c4ccccc4)n3)n2)c(OC)cc1N1CCOCC1` [Lazertinib] (10 µM), the “number of time points” value came to 0. On to `Cc1ccc2c(Nc3cccc(Cl)c3F)nccc2c1NC(=O)c1csc2c(N)ncnc12` [Belvarafenib] (10 µM), for which the “number of time points” value turned out to be 0. Still for that read-out and setting: the value for `Oc1cc(O)c2c(c1)OC1(c3ccc(O)c(O)c3)Oc3cc(O)c4c(c3C2C1O)OC(c1ccc(O)c(O)c1)C(O)C4` (centres undefined) [Procyanidin A1] (10 µM) was 0; that for `c1ccc(-c2nc3c(c(-n4ccc5cnccc54)n2)CCC3)nc1` (10 µM) was 0. With `Cc1cc(C)nc(NS(=O)(=O)c2ccc(NC(=S)NC(=O)COc3ccc(Br)cc3Cl)cc2)n1` (2.5 µM), the “number of time points” value amounted to 0. On the same count and under the same terms, under `Cc1ccc(NC(=O)c2ccc(CN(CCN(C)C)C(=O)c3cccnc3)cc2)cc1Nc1nccc(-c2cccnc2)n1` [PDGFRα kinase inhibitor 1] (10 µM) stands 0.
